Assay results taken from patent US20110311517A1, “Antibodies and methods for treating estrogen receptor-associated diseases” (SHENOGEN PHARMA GROUP, LTD., priority 2009, published 2011).
No constants are given. Whether binding was seen depends on the method and setting. Some binding calls cover weakened binding; strength is not graded here.

T1: biotinylated ERα36 (chemically synthesised target peptide, SEQ ID NO:2) (human)
T1 sequence (peptide, labeled with biotin (site not stated)): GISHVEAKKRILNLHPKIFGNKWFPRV

B1: human anti-ERα36 ScFv7 (purified, re-natured) (scFv)
scFv: QSVLTQPPSVSAAPGQKVTISCSGSSSNIGNNYVSWYQQLPGTAPKLLIYDNNKRPSGIPDRFSGSKSGTSATLGITGLQTGDEADYYCGTWDSSLSAGVFGGGTKLTVLGSGGSTITSYNVYYTKLSSSGTEVQLVQSGGGLVQPGRSLRLSCAASGFTFDDYAMHWVRQAPGKGLEWVSGISWNSGSIGYADSVKGRFTISRDNAKNSLYLQMNSLRAEDTALYYCAKEGDSSGWSPDYWGQGTLVTVSSAS
B2: human anti-ERα36 ScFv2 (purified, re-natured) (scFv)
scFv: QSALTQPASVSGSPGQSITISCTGTSSDVGGYNYVSWYQQHPGKAPKLMIYDVSKRPSGVSNRFSGSKSGNTASLTISGLQAEDEADYYCSSYTSSSTLVFGGGTKLTVLGSGGSTITSYNVYYTKLSSSGTQVQLLESGAEVKKPGASVKVSCKASGYTFTAYYMHWVRQAPGQGLEWMAMIDPSGSITSYAQKFQGRVTMSRDTSTSTLYMELSSLRSDDTAVYYCARDLKEGFSVPGAFDIWGQGTMVTVSSAS
B3: human anti-ERα36 ScFv6 (purified, re-natured) (scFv)
scFv: EIVMTQSPGTLSLSPGERATLSCRASQSVDSNFLAWYQQRPGQAPRLLIYGVSSSATGIPDRFSGSGSGTDFTLSIDRLEPEDFAVYYCQQYGSSPTFGGGTKLEIKRSGGSTITSYNVYYTKLSSSGTQVQLQESGGGLVQPGRSLRLSCAASGFTFDDYAMHWVRQAPGKGLEWVSGISWNSGSIGYADSVKGRFTISRDNAKNSLYLQMNSLRAEDTAVYYCARSGDYGAFDIWGQGTMVTVSSAS
B4: human anti-ERα36 ScFv3 (purified, re-natured) (scFv)
scFv: QSVLTQPASVSGSPGQSITISCTGTSSDVGGYNYVSWYQQHPGKAPKLMIYDVSKRPSGVSNRFSGSKSGNTASLTISGLQAEDEADYYCSSYTSSSTLVFGGGTKLTVLGSGGSTITSYNVYYTKLSSSGTEVQLVQSGGGVAQPGRSLRLSCAASGITFNSYGMHWVRQAPGKGLEWVAVMPYDGSNEYYADSVKGRFTISRDNSKNTLYLQMNSLRAEDTAVYYCAKGSGMVQLWADAFDVWGQGTMVTVSSAS
B5: phage-displayed ScFv7 (phage clone 12) (scFv)
scFv: B1 scFv
B6: phage-displayed ScFv2 (phage clones 1, 7, 11, 15, 17, 25, 28, 34, 38) (scFv)
scFv: B2 scFv
B7: phage-displayed ScFv6 (phage clones 27, 39, 26) (scFv)
scFv: B3 scFv
B8: phage-displayed ScFv3 (phage clones 4, 8, 14, 22, 23, 37) (scFv)
scFv: B4 scFv

target: T1, biotinylated ERα36 (chemically synthesised target peptide, SEQ ID NO:2) (human); assay: ELISA on biotinylated ERα36 (streptavidin plate)

| Binder | binding |
| --- | --- |
| B1 | binds |
| B2 | binds |
| B3 | binds |
| B4 | binds |

target: T1, biotinylated ERα36 (chemically synthesised target peptide, SEQ ID NO:2) (human); assay: phage ELISA, biotinylated ERα36 on neutravidin plate

| Binder | binding |
| --- | --- |
| B5 | binds |
| B6 | binds |
| B7 | binds |
| B8 | binds |
